From US11628176B2, “Combinational drug therapies” (Opna Bio SA, priority 2020, dated 2023)

How the values were obtained:
LNCaP cells = test: Prostate cancer cell growth assay, single compound (CellTiter-Glo); type: cell-based; details: Homo sapiens, 120 h, 5 days incubation, n=3, read-out: IC50 (geometric mean)
Procedure: (§1) Growth assays were done in triplicate and performed as follows.
(§2) 1. On Day 1, LNCaP and 22Rv1 cells were seeded in wells of a 96-well plate at a density of 3000 cells/well in 100 μL of culture media (RPMI 1640 medium supplemented with 10% fetal bovine serum and 1% Penicillin/Streptomycin). Cells were incubated overnight at 37° C. in a humidified atmosphere with 5% CO2.
(§3) 2. On Day 2, for single compound treatment studies, each compound was serially diluted 1:3 in DMSO to create a 9-point titration. A 3 μL aliquot of each dilution was added to 747 μL culture media and 100 μL were added to each triplicate well. Wells containing 0.2% DMSO-treated cells served as uninhibited controls.
(§4) In all studies, cells were incubated at 37° C. in a humidified atmosphere with 5% CO2 for 5 days.
(§5) 3. On Day 7, cell cultures were brought to room temperature for 30 minutes and 50 μL of reconstituted CellTiter-Glo Reagent was added to each well. Plates were shaken at room temperature for approximately 15 minutes Luminescent signal was quantified on a microplate reader.
(§6) 1. For single compound treatment study, all responses were expressed as % inhibition (the percentage inhibition compared to the average response of the DMSO-treated control wells). The data were analyzed by using nonlinear regression to generate IC50 values in Prism (GraphPad, La Jolla, Calif.). […]

22Rv1 cells = test: as above; type: cell-based; details: Homo sapiens, 120 h; 22Rv1 cell growth, 5 days incubation, n=3; read-out: IC50 (geometric mean)
Procedure: as §1, §2, §3, §4, §5, §6

IC50 (LNCaP cells): 6.8 µM
IC50 (22Rv1 cells): 51 µM
SMILES: CNC(=O)c1ccc(N2C(=S)N(c3ccc(C#N)c(C(F)(F)F)c3)C(=O)C2(C)C)cc1F [enzalutamide]
